Experimental data taken from article PMC12052123, “Investigating the quaternary structure of a homomultimeric catechol 1,2-dioxygenase: An integrative structural biology study” (PLOS One, 2025).
Results are given in words; binding and its absence hold for the method and conditions named. Some entries that bind do so weakly or less than the wild type.

Assays:
[1] = biological target: catechol 1,2-dioxygenase from Stutzerimonas frequens GOM2 (Stutzerimonas frequens GOM2 (Pseudomonas stutzeri GOM2)); assay: SDS-PAGE; denaturing Tris-Gly-SDS, 12% gel, Coomassie; lyophilized SfC12DO; both purified
[2] = biological target: catechol 1,2-dioxygenase from Stutzerimonas frequens GOM2 (Stutzerimonas frequens GOM2 (Pseudomonas stutzeri GOM2)); assay: SAXS (static mode); Buffer B, analysis of the mixture with OLIGOMERS (ATSAS); lyophilized and reconstituted SfC12DO; both purified

binding [1]: binds
binding [2]: binds
B1: catechol 1,2-dioxygenase from Stutzerimonas frequens GOM2 (enzyme, UniProt A0ABX6XR78 1-312, looked up)
chain: MTVKISHTNDVQQFFKEASGFNNDAGSSRLKTVINRVLADTARIIEDLEITQDEFWKAVDYINRLGGRHEAGLLVAGLGLEHYLDLLQDAKDEQEGLVGGTPRTIEGPLYVAGAPIAEGEVRMDDDSEEGVATTMFLQGRVTGPDGKPLAGATVDLWHANTKGNYSYFDKSQSEYNLRRRIVTDENGYYRARSIVPSGYGCSPDGPTQEVLDMLGRHGQRPAHIHFFISAPGHRHLTTQINLAGDKYLWDDFAYATRDGLVGDIRFIDDAEAARARGVQGRFAEVDFDFQLQKAPAPQAEQRSKRPRALQQA
notes: catechol 1,2-dioxygenase encoded by the CatA gene of Stutzerimonas frequens GOM2 (Pseudomonas stutzeri GOM2); regions are labelled up to residue 312; Non-heme Fe3+ enzyme; Number of copies depends on the sample: dimer when non-lyophilized; dimer, tetramer, (hexamer), octamer and >20-mer after lyophilization and reconstitution; also called SfC12DO; PsC12DO; source: used non-lyophilized, or …
